# Experimental data from PubChem BioAssay AID504467 (National Center for Advancing Translational Sciences (NCATS), 2011).
# The campaign covered roughly 330,000 compounds. About 7,700 (2.3%) were called active. The shares of active, inactive and inconclusive entries below differ from those in the screen. Calls follow the shape of the dose curve; as a rule, active = well fitted inhibition curve with a large enough effect; inconclusive = small, poorly fitted or top-dose-only effect, or effect the other way; inactive = flat fitted curve, though single readings scatter. A potency beside an inconclusive call is a rough fit, not a confirmed value.
# Experiment: qHTS screen for small molecules that inhibit ELG1-dependent DNA repair in human embryonic kidney (HEK293T) cells expressing luciferase-tagged ELG1; also: nearly all actives have a fitted effect of over 55% in size
# Conditions: HEK293T ELG1-luciferase reporter, luminescence, 16 h, DNA damage induced by 5-fluorouridine; activity change, negative = inhibition: at 46.1 µM (top of the series)
# Procedure, shortened: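 Step one: seed 2,000 cells per well. Step two: pin-transfer compound or DMSO alongside 5-fluorouridine. Step three: incubate 16 hr, 37 °C, 5% CO2. Step four: add ONE-Glo, wait 30 min, read luminescence.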
# % is scaled to controls: 0 for no effect and ±100 for the full control effect; potency is read from the fitted curve at half-maximal effect.
SMILES,"activity change, negative = inhibition",Potency
O=C(c1ccccc1)c1ccc(OCCn2cnc3ccccc3c2=O)cc1,inactive: -15.3%,–
O=S(=O)(c1cccc(Cl)c1)N1CCSc2ccccc21,–,"inconclusive: 15.8 µM [activator, partial curve, poor fit]"
COc1ccccc1-c1c(C)nn2c(NCCN3CCCC3)cc(C)nc12,inactive: 7.35%,–
O=C(CSCC(=O)N1CCN(c2ccccc2)CC1)Nc1nc(-c2ccc(Cl)s2)cs1,–,"inconclusive: 14.6 µM [inhibitor, partial curve]"
COc1ccc(-n2ncc3c(N4CCC(C)CC4)ncnc32)cc1,–,"inconclusive: 0.411 µM [activator, full curve, poor fit]"
Cc1sc2nc(CN3CCN(c4ccc(O)cc4)CC3)[nH]c(=O)c2c1C,–,active: 20.6 µM
C(=C\c1ccccc1)/C=N/Nc1nncc(-c2ccccc2)n1,inactive: 9.9%,–
CC(=O)n1c2ccccc2c2nc(NC(C)C)sc21,–,"inconclusive: 29.1 µM [activator, single point]"
CC(=O)c1cc(NC(=O)c2ccc(C)cc2)c(=O)oc1C,–,"inconclusive: 20.6 µM [activator, partial curve]"
Cc1cc(NC(=O)COc2cccc3cccnc23)no1,–,"inconclusive: 13 µM [activator, partial curve]"
O=C(O)C1CC=CCC1C(=O)NCCCN1CCCC1=O (configuration not stated),inactive: -5.52%,–
CN(C)/C=C/c1c(C#N)c(=O)ncn1Cc1ccccc1,–,"inconclusive: 13 µM [activator, partial curve, poor fit]"
CCN(C(=O)c1cc(Cl)ccc1Cl)C1CCS(=O)(=O)C1 (configuration not stated),inactive: 0%,–
CCc1ccc(Nc2nnc(SCC(=O)NC(=O)c3cccn3C)s2)cc1,–,"inconclusive: 18.3 µM [activator, single point]"
O=C(Nc1nccs1)c1ccc(NC(=O)C2CC=CCC2C(=O)O)cc1 (configuration not stated),–,"inconclusive: 23.1 µM [activator, single point]"
C/C=C/C(=O)Nc1cccc(C2=NOC3(C2)C[C@H](C(N)=O)N(C(=O)/C=C/C)C3)c1 (some centres not stated),–,"inconclusive: 29.1 µM [activator, single point]"
N#Cc1cc2ccccc2nc1SCc1cccnc1,–,"inconclusive: 11.6 µM [activator, partial curve, poor fit]"
COc1ccc(C(=O)NCC(=O)N/N=C/C(C)=C/c2ccccc2)cc1OC,inactive: -12.3%,–
C/C(=C\C(=O)c1ccncc1)Nc1ccccc1O,inactive: 2.4%,–
COc1ccccc1C(=O)CSc1nnc(-c2ccco2)o1,–,"inconclusive: 23.1 µM [activator, single point]"
O=C(Nc1nc2ccc(F)cc2s1)c1cccs1,–,"inconclusive: 1.83 µM [activator, partial curve]"
Cc1ccccc1NC(=O)/C(C#N)=C\c1cn(CC(=O)O)c2ccccc12,–,"inconclusive: 25.9 µM [activator, partial curve, poor fit]"
CCC(C(=O)Nc1ccc2[nH]ncc2c1)c1ccccc1 (configuration not stated),inactive: -28.6%,–
CC(=O)c1ccc(-c2nc3ccccc3n2C)o1,–,"inconclusive: 18.4 µM [activator, partial curve]"

SMILES,"activity change, negative = inhibition",Potency
COc1ccc(Cc2nnc(NC(=O)c3cccc([N+](=O)[O-])c3C)s2)cc1,inactive: 2.21%,–
CCN(Cc1ccccc1)C(=O)c1cc2c(OC)c(OC)c(OC)cc2[nH]1,–,"inconclusive: 18.3 µM [inhibitor, partial curve]"
CCOC(=O)c1c(-c2cccs2)csc1N,inactive: -15.4%,–
CC(C)C(NC(=O)c1ccc(C(C)(C)C)cc1)C(=O)NCC(c1ccccc1)N(C)C (configuration not stated),inactive: -9.04%,–
COc1ccc([N+](=O)[O-])cc1-c1[nH]c(-c2ccc(C(=O)O)cc2)nc1-c1ccccc1,inactive: -14.9%,–
O=C1CC(SCCO)C(=O)N1c1ccccc1 (configuration not stated),inactive: -21%,–
COc1ccc(C2N(c3ccc(Cl)cc3)N=C(C(C)=O)N(C)N2C(C)=O)cc1 (configuration not stated),–,"inconclusive: 29.1 µM [inhibitor, single point]"
CN(C(=O)COC(=O)/C=C/c1ccc2ccccc2n1)c1c(N)n(Cc2ccccc2)c(=O)[nH]c1=O,–,"inconclusive: 18.3 µM [inhibitor, partial curve, poor fit]"
O=C1CN(C(=O)c2cc3ccccc3oc2=O)C(c2ccc(F)cc2)c2cc(Br)ccc2N1 (configuration not stated),inactive: 5.73%,–
Cc1cccc(NC(=O)C2CCN(S(=O)(=O)c3cccc4cccnc34)CC2)n1,–,"inconclusive: 29.1 µM [inhibitor, single point]"
OCC1(Cc2ccccc2)CCN(Cc2cnc(-c3ccc(Cl)cc3)nc2)CC1,inactive: 29%,–
COc1ccccc1S(=O)(=O)Cc1ccc(C(=O)N2CCN(c3cccc(Cl)c3)CC2)o1,–,active: 11.6 µM
CC(C)NCc1nnc(-c2ccc(Cl)cc2)o1,–,"inconclusive: 23.1 µM [activator, single point]"
Cc1cc(C)n(-c2ccc(C(=O)N3CCN(S(=O)(=O)c4ccc(C(C)C)cc4)CC3)cc2)n1,inactive: -28.5%,–
Cc1ccc2c(c1)sc[n+]2Cc1ccccc1,–,"inconclusive: 7.94 µM [activator, partial curve, poor fit]"
COc1cc(C(=O)Oc2cc(N)n(S(=O)(=O)c3ccccc3)n2)cc(OC)c1OC,–,"inconclusive: 20.6 µM [activator, partial curve, poor fit]"
C=CCSc1nnc(NC(=O)CSc2ccccn2)s1,–,"inconclusive: 18.4 µM [activator, partial curve, poor fit]"
Cc1ccc(S(=O)(=O)N2CCCCC2)cc1NC(=O)COC(=O)C1CC2C=CC1C2 (configuration not stated),–,"inconclusive: 29.1 µM [inhibitor, single point]"
CN(CC(=O)NCC(c1ccccc1)N1CCCC1)S(=O)(=O)c1ccc(Cl)cc1 (configuration not stated),inactive: 8.82%,–
O=C(Nc1cccc(-c2nc3ccccc3s2)c1)c1cccs1,–,"inconclusive: 29.1 µM [inhibitor, single point]"
CN(Cc1ccc2c(c1)OCCO2)C(=O)CN1C(=O)NC2(CCCCC2)C1=O,inactive: -5.24%,–
CCN(C(=O)CN1C(=O)S/C(=C\c2ccc(Cl)cc2)C1=O)C1CCS(=O)(=O)C1 (configuration not stated),inactive: -15.5%,–
CCCCN(C(=O)c1oc2ccc(OCC)cc2c1C)c1c(N)n(CC(C)C)c(=O)[nH]c1=O,–,"inconclusive: 3.66 µM [activator, single point]"
Cc1ccc(S(=O)(=O)NCC(=O)NCC(=O)N2CCC(C)CC2)cc1,inactive: -15.8%,–

SMILES,"activity change, negative = inhibition",Potency
COc1ccccc1Oc1ccc2c(c1)C(=O)N(c1ccccc1)C2=O,inactive: -1.22%,–
CCn1c(NCCO)nc2c(c1=O)C(C)(CC)Cc1ccccc1-2 (configuration not stated),inactive: -4.68%,–
NC(=S)N/N=C/c1ccccc1[N+](=O)[O-],inactive: 0%,–
CCCc1cc(=O)[nH]c(Nc2ccc(Cl)cc2)n1,–,"inconclusive: 20.6 µM [inhibitor, single point]"
O=C(NCC(=O)N(Cc1ccccc1)C(C(=O)NCC1CCCO1)c1ccccc1)c1ccco1 (configuration not stated),–,"inconclusive: 29.1 µM [inhibitor, single point]"
Cc1cccc(OCC(=O)Nc2ccc3c(c2)nc2n3CCOC2)c1,inactive: 24.1%,–
Cc1ccc(OCCCOc2cccc3cccnc23)cc1C,–,"inconclusive: 20.6 µM [activator, partial curve, poor fit]"
CC(C)c1ccc(NC(=O)COc2ccccc2)cc1,–,"inconclusive: 23.1 µM [activator, partial curve]"
COc1ccc(N/N=C/c2c(C(=O)O)ccc3ccccc23)cc1,–,"inconclusive: 5.17 µM [inhibitor, single point]"
CCCN1CCC(=O)N([C@H](CSc2ccccc2)c2ccccc2)CC1,–,"inconclusive: 10.3 µM [activator, single point]"
NNC(=O)c1cccc(S(=O)(=O)Nc2cc(Cl)ccc2Cl)c1,–,"inconclusive: 29.1 µM [inhibitor, single point]"
CC1(c2ccccc2)NC(=O)N(CC(=O)NNC(=O)c2ccccc2)C1=O (configuration not stated),inactive: 0.869%,–
CC(C(=O)OCc1nnc(-c2ccccc2)o1)N1C(=O)c2ccccc2C1=O (configuration not stated),–,"inconclusive: 20.6 µM [activator, single point]"
C=CCn1c(=O)c2ccccc2n2c(SCC(=O)Nc3sc(C)c(CC)c3C(=O)OCC)nnc12,–,"inconclusive: 18.4 µM [inhibitor, partial curve]"
CC1=NN(c2ccc(C)c(C)c2)C(=O)/C1=C/c1ccc2c(c1)n(C)c(=O)n2C,–,"inconclusive: 14.6 µM [activator, partial curve, poor fit]"
Cc1ccc(COC(=O)c2nn(C)c(=O)c3ccccc23)cc1,–,"inconclusive: 8.2 µM [inhibitor, partial curve]"
CC1CN(S(=O)(=O)c2ccc(C(=O)N(CCCN(C)C)c3nc4cc5c(cc4s3)OCCO5)cc2)CC(C)O1 (configuration not stated),inactive: 13.5%,–
COc1ccc(C(=O)N2CCCC2(C#N)c2ccccc2)cc1[N+](=O)[O-] (configuration not stated),inactive: -29.3%,–
CCc1nc(OCc2ccco2)c2sc3nc4c(cc3c2n1)COC(C)(C)C4,–,"inconclusive: 29.1 µM [inhibitor, single point]"
CCCS(=O)(=O)c1c(S(=O)(=O)CCC)c2ccc(C(N)=O)cn2c1C(=O)OC,inactive: -6.18%,–
COc1ccc(N2CCN(CC(=O)Nc3c(C)cc(C)cc3C)CC2)cc1,–,"inconclusive: 32.6 µM [inhibitor, single point]"
CC(=O)c1ccc(S(=O)(=O)N2CCN(C(=O)c3ccc(-n4nc(C)c(Cl)c4C)cc3)CC2)cc1,–,"inconclusive: 8.2 µM [inhibitor, partial curve]"
Cc1cccc(OCC(O)Cn2c(=N)n(Cc3ccccc3)c3ccccc32)c1 (configuration not stated),–,"inconclusive: 29.1 µM [inhibitor, single point]"
CC(NC(=O)c1cccc(S(=O)(=O)N2CCN(Cc3ccccc3)CC2)c1)c1ccc(Br)cc1 (configuration not stated),–,"inconclusive: 29.1 µM [inhibitor, single point]"

# 4 structures from above, sorted by count of non-hydrogen atoms, descending:
SMILES,"activity change, negative = inhibition",Potency
CCCN1CCC(=O)N([C@H](CSc2ccccc2)c2ccccc2)CC1,–,"inconclusive: 10.3 µM [activator, single point]"
COc1ccc(N/N=C/c2c(C(=O)O)ccc3ccccc23)cc1,–,"inconclusive: 5.17 µM [inhibitor, single point]"
Cc1ccc(OCCCOc2cccc3cccnc23)cc1C,–,"inconclusive: 20.6 µM [activator, partial curve, poor fit]"
NNC(=O)c1cccc(S(=O)(=O)Nc2cc(Cl)ccc2Cl)c1,–,"inconclusive: 29.1 µM [inhibitor, single point]"
